According to PubChem BioAssay AID2662 (National Center for Advancing Translational Sciences (NCATS), 2010):
Out of some 290,000 compounds screened, about 110 (0.038%) were called active. This list was built around the results that the source calls inconclusive (neither active nor inactive); the mix of calls is not that of the screen. Calls come from the whole dose curve; as a rule, active = well fitted inhibition curve with a large enough effect in the polarisation, with a control signal flat (not every such curve was filed as active); inconclusive = small, poorly fitted or top-dose-only effect, or effect the other way, or a change in a side signal; inactive = no such curve, though single readings can be large or run the other way; the % refers to the polarisation. Potencies beside an inconclusive call are fits to weak or partial responses and may not hold up. “Side channel” marks fits to a control or component signal instead of the main read-out.

Protein sequences, listed by entry. Tags and fused reporters are not part of them.
UniProt Q03164, whole entry, looked up: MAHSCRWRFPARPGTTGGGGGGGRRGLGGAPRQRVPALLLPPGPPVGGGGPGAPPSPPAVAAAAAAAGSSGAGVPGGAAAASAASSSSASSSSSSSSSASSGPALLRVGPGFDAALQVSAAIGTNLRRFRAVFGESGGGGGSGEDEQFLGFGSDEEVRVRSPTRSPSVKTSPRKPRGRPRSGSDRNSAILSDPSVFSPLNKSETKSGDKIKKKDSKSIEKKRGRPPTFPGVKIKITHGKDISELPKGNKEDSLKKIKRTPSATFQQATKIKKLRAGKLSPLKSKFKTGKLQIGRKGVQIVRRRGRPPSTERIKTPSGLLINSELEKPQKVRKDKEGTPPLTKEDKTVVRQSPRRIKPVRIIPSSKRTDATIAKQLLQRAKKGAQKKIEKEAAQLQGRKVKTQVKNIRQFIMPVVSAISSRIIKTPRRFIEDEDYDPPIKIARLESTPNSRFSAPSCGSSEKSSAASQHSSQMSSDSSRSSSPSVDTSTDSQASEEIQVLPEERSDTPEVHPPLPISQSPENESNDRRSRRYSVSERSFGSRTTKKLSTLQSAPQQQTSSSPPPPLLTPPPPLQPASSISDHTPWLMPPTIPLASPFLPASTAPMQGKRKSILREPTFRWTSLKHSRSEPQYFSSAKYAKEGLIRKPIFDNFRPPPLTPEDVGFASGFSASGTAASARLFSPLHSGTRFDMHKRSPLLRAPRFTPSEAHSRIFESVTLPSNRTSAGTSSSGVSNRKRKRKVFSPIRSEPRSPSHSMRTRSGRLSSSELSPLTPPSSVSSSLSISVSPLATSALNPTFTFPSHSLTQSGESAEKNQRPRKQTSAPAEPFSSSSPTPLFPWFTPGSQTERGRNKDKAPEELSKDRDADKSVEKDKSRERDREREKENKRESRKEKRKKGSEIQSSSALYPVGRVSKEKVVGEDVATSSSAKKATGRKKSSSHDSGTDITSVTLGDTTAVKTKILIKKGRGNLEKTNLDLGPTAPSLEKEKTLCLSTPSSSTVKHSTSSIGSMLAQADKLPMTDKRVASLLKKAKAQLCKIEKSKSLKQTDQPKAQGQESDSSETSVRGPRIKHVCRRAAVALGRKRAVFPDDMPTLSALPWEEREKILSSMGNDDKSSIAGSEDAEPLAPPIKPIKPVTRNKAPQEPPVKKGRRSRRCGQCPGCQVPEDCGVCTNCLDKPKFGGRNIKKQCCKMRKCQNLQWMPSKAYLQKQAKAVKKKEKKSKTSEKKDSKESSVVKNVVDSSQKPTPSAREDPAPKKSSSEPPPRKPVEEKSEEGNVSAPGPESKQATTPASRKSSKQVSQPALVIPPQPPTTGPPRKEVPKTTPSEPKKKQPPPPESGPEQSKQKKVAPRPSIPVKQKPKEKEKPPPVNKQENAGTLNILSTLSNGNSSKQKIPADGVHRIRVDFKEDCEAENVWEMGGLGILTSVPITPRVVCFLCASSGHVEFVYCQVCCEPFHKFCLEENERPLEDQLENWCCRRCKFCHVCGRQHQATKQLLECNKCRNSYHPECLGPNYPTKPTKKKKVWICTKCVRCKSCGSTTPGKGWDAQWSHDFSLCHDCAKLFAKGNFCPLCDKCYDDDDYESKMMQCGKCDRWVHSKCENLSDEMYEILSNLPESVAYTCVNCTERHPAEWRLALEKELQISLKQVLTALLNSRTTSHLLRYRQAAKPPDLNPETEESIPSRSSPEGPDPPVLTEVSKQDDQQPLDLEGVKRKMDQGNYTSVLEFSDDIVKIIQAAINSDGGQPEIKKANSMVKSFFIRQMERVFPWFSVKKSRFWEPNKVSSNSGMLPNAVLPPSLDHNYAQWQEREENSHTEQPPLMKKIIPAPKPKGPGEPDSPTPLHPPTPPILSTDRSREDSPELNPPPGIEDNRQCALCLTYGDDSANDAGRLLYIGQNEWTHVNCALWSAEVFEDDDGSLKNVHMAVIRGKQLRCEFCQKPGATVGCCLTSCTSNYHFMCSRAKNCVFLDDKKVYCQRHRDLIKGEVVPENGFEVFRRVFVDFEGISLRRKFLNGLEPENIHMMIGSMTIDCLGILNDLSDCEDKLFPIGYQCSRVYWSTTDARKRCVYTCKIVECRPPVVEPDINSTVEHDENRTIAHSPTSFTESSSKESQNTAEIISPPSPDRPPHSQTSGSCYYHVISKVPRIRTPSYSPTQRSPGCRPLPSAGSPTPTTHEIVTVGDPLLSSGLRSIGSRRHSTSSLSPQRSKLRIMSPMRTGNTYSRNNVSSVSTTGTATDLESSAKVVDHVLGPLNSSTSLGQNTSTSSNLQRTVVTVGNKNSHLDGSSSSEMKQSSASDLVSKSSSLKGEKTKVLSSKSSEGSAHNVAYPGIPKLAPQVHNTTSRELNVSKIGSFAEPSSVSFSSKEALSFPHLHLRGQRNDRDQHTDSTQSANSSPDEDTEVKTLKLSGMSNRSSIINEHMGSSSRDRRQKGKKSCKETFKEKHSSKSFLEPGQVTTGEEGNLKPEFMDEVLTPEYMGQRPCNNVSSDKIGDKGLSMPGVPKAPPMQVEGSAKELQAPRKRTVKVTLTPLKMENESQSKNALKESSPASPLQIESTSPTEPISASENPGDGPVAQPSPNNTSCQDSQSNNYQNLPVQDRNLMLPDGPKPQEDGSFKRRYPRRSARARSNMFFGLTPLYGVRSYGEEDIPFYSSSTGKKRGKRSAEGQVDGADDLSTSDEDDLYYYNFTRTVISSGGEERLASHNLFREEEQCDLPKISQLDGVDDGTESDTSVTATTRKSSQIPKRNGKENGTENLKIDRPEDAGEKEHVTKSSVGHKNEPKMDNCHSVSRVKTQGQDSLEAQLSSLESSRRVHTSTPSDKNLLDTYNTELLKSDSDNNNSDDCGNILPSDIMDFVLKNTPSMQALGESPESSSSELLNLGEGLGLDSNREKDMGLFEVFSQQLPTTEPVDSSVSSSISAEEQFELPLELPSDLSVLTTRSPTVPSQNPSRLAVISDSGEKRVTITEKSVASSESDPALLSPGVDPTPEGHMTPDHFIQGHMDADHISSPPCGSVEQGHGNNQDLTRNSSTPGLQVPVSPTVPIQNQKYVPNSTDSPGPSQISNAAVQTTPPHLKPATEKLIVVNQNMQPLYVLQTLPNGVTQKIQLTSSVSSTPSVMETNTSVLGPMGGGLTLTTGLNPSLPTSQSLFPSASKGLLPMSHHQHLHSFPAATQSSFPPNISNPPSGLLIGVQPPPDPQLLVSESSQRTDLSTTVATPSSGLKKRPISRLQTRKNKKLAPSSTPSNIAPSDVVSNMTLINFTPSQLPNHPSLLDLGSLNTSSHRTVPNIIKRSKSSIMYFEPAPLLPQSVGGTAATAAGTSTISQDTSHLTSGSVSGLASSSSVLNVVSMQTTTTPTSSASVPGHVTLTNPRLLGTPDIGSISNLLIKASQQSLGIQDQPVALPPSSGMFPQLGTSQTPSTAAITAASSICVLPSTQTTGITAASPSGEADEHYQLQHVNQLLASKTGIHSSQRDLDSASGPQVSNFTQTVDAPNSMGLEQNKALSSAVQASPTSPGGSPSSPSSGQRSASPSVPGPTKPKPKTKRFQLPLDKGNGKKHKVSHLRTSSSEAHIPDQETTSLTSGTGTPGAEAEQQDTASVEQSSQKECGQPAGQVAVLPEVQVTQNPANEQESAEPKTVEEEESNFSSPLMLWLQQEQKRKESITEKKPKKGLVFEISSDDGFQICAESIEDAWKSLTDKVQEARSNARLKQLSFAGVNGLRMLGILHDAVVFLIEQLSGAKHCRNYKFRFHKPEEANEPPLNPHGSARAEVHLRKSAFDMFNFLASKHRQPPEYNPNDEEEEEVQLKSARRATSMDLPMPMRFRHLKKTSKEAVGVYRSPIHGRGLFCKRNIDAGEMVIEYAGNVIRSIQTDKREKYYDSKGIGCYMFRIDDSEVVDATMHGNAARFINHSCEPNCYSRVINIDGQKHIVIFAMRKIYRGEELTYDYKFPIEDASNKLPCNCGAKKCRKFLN

What follows are compounds tested against Histone-lysine N-methyltransferase 2A (Homo sapiens) (UniProt Q03164) (assay: qHTS Fluorescence Polarization Assay for Inhibitors of MLL CXXC domain - DNA interaction). Conditions: MLL-CXXC / FITC-HOXA9 DNA fluorescence polarization; activity change, negative = inhibition: at 115 µM (top of the series).
How it was run: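 Purified MLL-CXXC (added from a 7 uM solution) was preincubated 5 min at ambient with pinned compounds in 50 mM Tris-HCl pH 7.5, 50 mM NaCl, 1 mM DTT, 0.05% BSA. Fluorescein-labeled HOX-A9 DNA (50 nM solution) followed, 30 min, then polarization read.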
Potency is the fitted concentration of half-maximal effect.

| Structure (SMILES) | Potency | activity change, negative = inhibition |
| --- | --- | --- |
| CC1CCN(Cc2c(O)ccc3c2O/C(=C\c2ccco2)C3=O)CC1 | inconclusive: 7.94 µM [fluorescent, side channel, single point] | – |
| O=C1c2ccccc2C(=O)C2OC12 (centres undefined) | inconclusive: 35.5 µM [inhibitor, single point] | – |
| COC(=O)c1ccc(SCc2cnc(Cl)s2)cc1 | inconclusive: 89.1 µM [inhibitor, single point] | – |
| O=C1/C(=C\c2ccco2)CCC/C1=C\c1ccco1 | inconclusive: 11.2 µM [fluorescent, side channel, partial curve] | – |
| CC1CCN(c2ccccc2NC(=S)NC(=O)c2cccs2)CC1 | inconclusive: 11.2 µM [inhibitor, partial curve] | – |
| O=C(O)C1CCN(c2ccc(S(=O)(=O)N3CCOCC3)cc2[N+](=O)[O-])CC1 | inconclusive: 35.5 µM [fluorescent, side channel, partial curve, poor fit] | – |
| O=C1S/C(=C/c2ccc(N3CCOCC3)o2)C(=O)N1Cc1ccc(F)cc1 | inconclusive: 28.2 µM [fluorescent, side channel, partial curve] | – |
| Cc1ccc(C(=O)C2=C(O)C(=O)N(Cc3cccnc3)C2c2ccc(Cl)c(Cl)c2)o1 (centres undefined) | inconclusive: 89.1 µM [quencher, side channel, single point] | – |
| CCN(CC)c1ccc(NC(=O)c2cc3ccccc3o2)c(C)c1 | – | inactive: 6.33% |
| Cc1ccc2c(c1)NCC(C(=O)NC1CCCCC1)O2 (centres undefined) | inconclusive: 15.8 µM [inhibitor, single point] | – |
| Nc1c(N2CCCC2)cc(Cl)c2nonc12 | inconclusive: 35.5 µM [inhibitor, single point] | – |
| Cc1cc(Cl)ccc1OCCCC(=O)NCCN1C(=O)S/C(=C\c2cccnc2)C1=O | inconclusive: 89.1 µM [inhibitor, single point] | – |
| COc1ccc([N+](=O)[O-])cc1NS(=O)(=O)c1ccc(Cl)c(C(=O)Nc2sc3c(c2C#N)CCCCC3)c1 | – | inactive: -3.26% |
| CCOC(=O)c1sc(NC(=O)Cc2c(F)cccc2Cl)nc1C | – | inconclusive: 8.04% [phenotype inactive] |
| CCCCn1c(SCC(=O)Nc2nnc(C)s2)nnc1-c1ccncc1 | inconclusive: 31.6 µM [fluorescent, side channel, partial curve] | – |
| Cc1c(NC(=O)CSc2nnnn2-c2ccc(F)cc2)c(=O)n(-c2ccccc2)n1C | inconclusive: 7.94 µM [inhibitor, single point] | – |
| Cc1ccc(NNC(=O)C(O)(c2cccc(C(F)(F)F)c2)c2cccc(C(F)(F)F)c2)cc1 | – | inactive: -5.45% |
| CN1CCN(CCCNC(=O)c2ccc(/C=C3\Sc4ccccc4N(Cc4ccc(F)cc4)C3=O)cc2)CC1 | inconclusive: 44.7 µM [quencher, side channel, single point] | – |
| CC(NC(=O)c1ccncc1)c1ccc(Cl)cc1Cl (centres undefined) | inconclusive: 63.1 µM [fluorescent, side channel, single point] | – |
| Cc1cc(C(=O)O)ccc1N/C=C1\CCCC(C)C1=O (centres undefined) | inconclusive: 31.6 µM [inhibitor, single point] | – |

| Structure (SMILES) | Potency | activity change, negative = inhibition |
| --- | --- | --- |
| CCCCc1[nH]c(=O)c(C#N)c2c1CSC(C)(C)C2 | – | inactive: -3.69% |
| Cc1ccccc1N=C/C=C1\N(C)c2ccccc2C1(C)C | – | inactive: 9.52% |
| C(=N\Nc1ccc2nncn2n1)/c1ccccn1 | inconclusive: 5.62 µM [fluorescent, side channel, full curve] | – |
| O=C(Cc1nc2ccccc2[nH]c1=O)c1ccccc1 | inconclusive: 35.5 µM [fluorescent, side channel, single point] | – |
| COc1cccc2c(SCC(=O)N/N=C/c3ccccc3)cc(C)nc12 | – | inconclusive: 10.2% [phenotype inactive] |
| NC(=O)C1CCN(Cc2nc3cc(C(F)(F)F)ccc3c(=O)[nH]2)CC1 | – | inactive: -5.84% |
| C=CCN=C1N[C@@H](c2ccc(Br)cc2)C(C(=O)OC)=C(C)N1Cc1ccccc1 | inconclusive: 20 µM [quencher, side channel, partial curve] | – |
| O=C(O)CN1C(=O)/C(=C/c2ccc(N3CCCCC3)o2)SC1=S | inconclusive: 7.08 µM [fluorescent, side channel, full curve] | – |
| O=C(Nc1nc2c(s1)CN(Cc1ccccc1)CC2)c1cccc(S(=O)(=O)N2CCc3ccccc32)c1 | inconclusive: 70.8 µM [fluorescent, side channel, single point] | – |
| O=C(N/C(=C/C=C\c1ccccc1)C(=O)N1CCOCC1)c1ccc(Br)cc1 | inconclusive: 70.8 µM [inhibitor, single point] | – |
| O=C(N/N=C/c1ccc(-c2cccc(C(F)(F)F)c2)o1)c1ccccc1Br | inconclusive: 39.8 µM [fluorescent, side channel, single point] | – |
| NC(=O)COc1ccc2cc(-c3ccc(F)cc3)c(=O)oc2c1 | – | inactive: 0.108% |
| Cc1cccc(NC(=O)COC(=O)c2ccccc2-c2nc3ccccc3s2)c1C | inconclusive: 70.8 µM [fluorescent, side channel, single point] | – |
| Fc1ccc(F)c(CNc2ncnc3cc(Cl)ccc23)c1 | inconclusive: 14.1 µM [fluorescent, side channel, partial curve] | – |
| COC(=O)[C@H](C)NC(=O)NC(C)CCc1ccccc1 (some centres undefined) | – | inactive: 6.58% |
| Cc1ccc2nc(/C(C#N)=C\c3ccc(N4CCOCC4)o3)[nH]c2c1 | inconclusive: 1 µM [fluorescent, side channel, full curve, poor fit] | – |
| O=C(N/N=C\c1cc2c(cc1[N+](=O)[O-])OCO2)c1cccs1 | – | inactive: 2.52% |
| Cc1ccc(S(=O)(=O)NN2C(=O)c3ccccc3NC2C)cc1 (centres undefined) | inconclusive: 12.6 µM [fluorescent, side channel, single point] | – |
| COc1ccc(/C=C2/CC/C(=C\c3ccc(OC)c(OC)c3OC)C2=O)c(OC)c1OC | inconclusive: 35.5 µM [fluorescent, side channel, partial curve] | – |

Another view of part of the listing above.
COc1cccc2c(SCC(=O)N/N=C/c3ccccc3)cc(C)nc12
  activity change, negative = inhibition: inconclusive: 10.2% [phenotype inactive]
Fc1ccc(F)c(CNc2ncnc3cc(Cl)ccc23)c1
  Potency: inconclusive: 14.1 µM [fluorescent, side channel, partial curve]
Cc1ccc(S(=O)(=O)NN2C(=O)c3ccccc3NC2C)cc1 (centres undefined)
  Potency: inconclusive: 12.6 µM [fluorescent, side channel, single point]
